PubChem BioAssay AID652243 | Drosophila RNAi Screening Center – 2013
Aim: 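Fly genes required for human androgen receptor driven transcription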 (primary screen). Cell system: Drosophila S2R+ cells. Reagent: long dsRNA against Drosophila genes. Timing: 72 h (48 h, then 24 h hormone). Treatment: synthetic androgen R1881 at 10 nM for 24 h. Measured: 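Per-well raw luminescence of the androgen-driven firefly reporter and of the Renilla control, two replicates each, without normalisation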. Reading the numbers: firefly reporter light: higher = more light from androgen-responsive reporter; Renilla control light: higher = more constitutive control signal (cell number, transfection). Call rule: 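Across duplicate plates, a knock-down whose log firefly/Renilla ratio shifted a set fold down or up from the GFP/LacZ control mean was a hit; the downward cut appears as both 1.5 and 3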. Meaning of the calls: active = hit: reporter lowered or raised; inactive = no hit.
In all, the deposit lists about 24,000 reagents; shown is an unselected part of those with a known target gene and a result. In the full data, 246 (1%) were called active. 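Plates not normalised; calls are printed but the firefly/Renilla ratio behind them is not deposited; fold cut for lowering reported inconsistently.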 Raw values vary from plate to plate and are shown uncorrected. Entries without a mark were called inactive. The numbers tell different reagents against one gene apart. A plus sign joins genes that one reagent is predicted to hit. No sequences are given here. The record does not give: the amount of reagent.

CG31058 (retired record) (GeneID 43320) #1 → firefly reporter light, replicate 1: 8.21e5; firefly reporter light, replicate 2: 7.98e5; Renilla control light, replicate 1: 1.58e6; Renilla control light, replicate 2: 1.87e6
CG31058 (retired record) (GeneID 43320) #2 → firefly reporter light, replicate 1: 5.88e5; firefly reporter light, replicate 2: 4.24e5; Renilla control light, replicate 1: 1.96e6; Renilla control light, replicate 2: 1.13e6
CG31058 (retired record) (GeneID 43320) #3 → firefly reporter light, replicate 1: 4.47e5; firefly reporter light, replicate 2: 3.59e5; Renilla control light, replicate 1: 1.28e6; Renilla control light, replicate 2: 1.32e6
CG43861 (GeneID 35284) #1 → firefly reporter light, replicate 1: 1.41e5; firefly reporter light, replicate 2: 1.62e5; Renilla control light, replicate 1: 1.42e6; Renilla control light, replicate 2: 1.34e6
CG43861 (GeneID 35284) #2 → firefly reporter light, replicate 1: 1.03e5; firefly reporter light, replicate 2: 1.80e5; Renilla control light, replicate 1: 1.01e6; Renilla control light, replicate 2: 1.21e6
fid (GeneID 43148) #1 → firefly reporter light, replicate 1: 29193; firefly reporter light, replicate 2: 27214; Renilla control light, replicate 1: 7.32e5; Renilla control light, replicate 2: 8.39e5
fid (GeneID 43148) #2 → firefly reporter light, replicate 1: 93277; firefly reporter light, replicate 2: 1.15e5; Renilla control light, replicate 1: 1.84e6; Renilla control light, replicate 2: 2.08e6
fid (GeneID 43148) #3 → firefly reporter light, replicate 1: 5.04e5; firefly reporter light, replicate 2: 6.42e5; Renilla control light, replicate 1: 8.16e5; Renilla control light, replicate 2: 8.79e5
fid (GeneID 43148) #4 → firefly reporter light, replicate 1: 1.56e6; firefly reporter light, replicate 2: 1.47e6; Renilla control light, replicate 1: 1.09e6; Renilla control light, replicate 2: 8.56e5
CG13667 (GeneID 38956) → firefly reporter light, replicate 1: 1.00e6; firefly reporter light, replicate 2: 1.08e6; Renilla control light, replicate 1: 1.33e6; Renilla control light, replicate 2: 1.54e6
CG4650 (GeneID 34859) → firefly reporter light, replicate 1: 1.37e5; firefly reporter light, replicate 2: 1.40e5; Renilla control light, replicate 1: 2.09e6; Renilla control light, replicate 2: 1.96e6
CG13460 (GeneID 39638) → firefly reporter light, replicate 1: 1.39e5; firefly reporter light, replicate 2: 1.44e5; Renilla control light, replicate 1: 1.56e6; Renilla control light, replicate 2: 1.19e6
Bap111 (GeneID 31846) #1 → firefly reporter light, replicate 1: 5.42e5; firefly reporter light, replicate 2: 4.19e5; Renilla control light, replicate 1: 2.61e6; Renilla control light, replicate 2: 1.77e6
Bap111 (GeneID 31846) #2 → firefly reporter light, replicate 1: 9.64e5; firefly reporter light, replicate 2: 8.30e5; Renilla control light, replicate 1: 9.11e5; Renilla control light, replicate 2: 8.79e5
Bub3 (GeneID 43490) #1 → firefly reporter light, replicate 1: 1.25e5; firefly reporter light, replicate 2: 62513; Renilla control light, replicate 1: 8.79e5; Renilla control light, replicate 2: 6.58e5
Bub3 (GeneID 43490) #2 → firefly reporter light, replicate 1: 5.48e5; firefly reporter light, replicate 2: 4.79e5; Renilla control light, replicate 1: 1.24e6; Renilla control light, replicate 2: 1.11e6
ETH + asRNA:CR43257 → firefly reporter light, replicate 1: 2.05e5; firefly reporter light, replicate 2: 1.80e5; Renilla control light, replicate 1: 1.49e6; Renilla control light, replicate 2: 1.63e6
sowi (GeneID 40809) #1 → firefly reporter light, replicate 1: 50991; firefly reporter light, replicate 2: 30571; Renilla control light, replicate 1: 8.41e5; Renilla control light, replicate 2: 8.35e5
sowi (GeneID 40809) #2 → firefly reporter light, replicate 1: 8.12e5; firefly reporter light, replicate 2: 5.51e5; Renilla control light, replicate 1: 5.21e5; Renilla control light, replicate 2: 6.61e5
Rb97D (GeneID 43231) #1 → firefly reporter light, replicate 1: 62601; firefly reporter light, replicate 2: 51526; Renilla control light, replicate 1: 1.65e6; Renilla control light, replicate 2: 2.06e6
Rb97D (GeneID 43231) #2 → firefly reporter light, replicate 1: 2.38e5; firefly reporter light, replicate 2: 3.00e5; Renilla control light, replicate 1: 5.60e5; Renilla control light, replicate 2: 4.81e5
CG17751 (GeneID 42336) #1 → firefly reporter light, replicate 1: 2.73e5; firefly reporter light, replicate 2: 2.96e5; Renilla control light, replicate 1: 3.47e6; Renilla control light, replicate 2: 3.67e6
CG17751 (GeneID 42336) #2 → firefly reporter light, replicate 1: 5.30e5; firefly reporter light, replicate 2: 9.31e5; Renilla control light, replicate 1: 1.43e6; Renilla control light, replicate 2: 1.50e6
CG17751 (GeneID 42336) #3 → firefly reporter light, replicate 1: 8.32e5; firefly reporter light, replicate 2: 7.06e5; Renilla control light, replicate 1: 9.37e5; Renilla control light, replicate 2: 9.53e5
Ccdc39 (GeneID 40595) → firefly reporter light, replicate 1: 1.08e5; firefly reporter light, replicate 2: 1.66e5; Renilla control light, replicate 1: 2.07e6; Renilla control light, replicate 2: 2.22e6
Ir60e (GeneID 37917) → firefly reporter light, replicate 1: 2.01e5; firefly reporter light, replicate 2: 2.08e5; Renilla control light, replicate 1: 1.39e6; Renilla control light, replicate 2: 1.02e6
Tango14 (GeneID 33298) #1 → firefly reporter light, replicate 1: 1.14e5; firefly reporter light, replicate 2: 72919; Renilla control light, replicate 1: 8.24e5; Renilla control light, replicate 2: 8.00e5
Tango14 (GeneID 33298) #2 → firefly reporter light, replicate 1: 9.24e5; firefly reporter light, replicate 2: 9.48e5; Renilla control light, replicate 1: 1.12e6; Renilla control light, replicate 2: 1.37e6
